Consider three molecules from doi:10.1101/636712.

Chains of the proteins cited; added tags and fusions are not shown. Residues count along the entry.
UniProt O95166: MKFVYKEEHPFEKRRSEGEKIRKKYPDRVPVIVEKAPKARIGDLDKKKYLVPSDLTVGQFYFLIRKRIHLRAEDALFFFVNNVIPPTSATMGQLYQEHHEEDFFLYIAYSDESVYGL
UniProt Q9BXW4, residues 1-126: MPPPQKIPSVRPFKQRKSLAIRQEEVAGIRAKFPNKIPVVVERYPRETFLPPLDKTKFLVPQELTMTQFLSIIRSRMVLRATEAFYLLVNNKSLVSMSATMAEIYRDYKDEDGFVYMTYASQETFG

Holding throughout (experiment): co-IP
In test [1] the target is GFP-GABARAP (human) (UniProt O95166).
Test [2] concerns the target GFP-LC3C (human) (UniProt Q9BXW4).
Test [3] has as its target GFP-LC3A (human) (UniProt Q9H492).
The target in test [4] is T1, GFP-LMX1A (TRE-GFP-LMX1A) (human) (UniProt Q8TE12).
T1 sequence: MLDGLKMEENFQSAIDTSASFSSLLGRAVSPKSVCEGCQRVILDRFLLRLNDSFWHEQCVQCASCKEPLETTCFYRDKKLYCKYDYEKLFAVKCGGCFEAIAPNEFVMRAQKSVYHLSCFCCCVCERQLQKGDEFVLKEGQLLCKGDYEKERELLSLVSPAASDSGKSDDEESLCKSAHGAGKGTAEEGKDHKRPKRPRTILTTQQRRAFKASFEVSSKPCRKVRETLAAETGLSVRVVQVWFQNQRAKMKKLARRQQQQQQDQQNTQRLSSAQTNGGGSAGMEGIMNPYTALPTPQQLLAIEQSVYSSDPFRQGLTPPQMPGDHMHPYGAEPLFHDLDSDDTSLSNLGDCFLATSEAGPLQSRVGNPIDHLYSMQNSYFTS

Test [5] addresses GFP-GABARAP (human) (UniProt O95166). This is another data set of the same source.
Test [6] concerns the target GFP-LC3C (human) (UniProt Q9BXW4). This is another data set of the same source.
For test [7], the target named is GFP-LC3A (human) (UniProt Q9H492). The source holds these as a separate data set.

Read-outs that look alike come from different tables or passages of the source. These are yes or no findings as the source states them, for the method shown. Binding seen in cells or lysates may run through a third protein. Some results given as binding are weak or reduced against the parent protein; the word gives no strength. For some of these results: Tags and fused reporters may be left off the sequences shown.

Turning to “LMX1B-FLAG (from UniProt O60663-1 1-402)”, the binding entry with GFP-GABARAP (human) [1], in the test with GFP-LC3C (human) [2] and with GFP-LC3A (human) [3] was “binds” throughout.

“mCherry-LMX1B (TRE-mCherry-LMX1B) (from UniProt O60663-1 1-402)”: in test [4], the binding result was “binds”.

B1: LIR mutant (Y309A/L312A) LMX1B-FLAG (protein, UniProt O60663-1 1-402)
chain: MDIATGPESLERCFPRGQTDCAKMLDGIKMEEHALRPGPATLGVLLGSDCPHPAVCEGCQRPISDRFLMRVNESSWHEECLQCAACQQALTTSCYFRDRKLYCKQDYQQLFAAKCSGCMEKIAPTEFVMRALECVYHLGCFCCCVCERQLRKGDEFVLKEGQLLCKGDYEKEKDLLSSVSPDESDSVKSEDEDGDMKPAKGQGSQSKGSGDDGKDPRRPKRPRTILTTQQRRAFKASFEVSSKPCRKVRETLAAETGLSVRVVQVWFQNQRAKMKKLARRHQQQQEQQNSQRLGQEVLSSRMEGMMASATPAAPPQQQIVAMEQSPYGSSDPFQQGLTPPQMPGDHMNPYGNDSIFHDIDSDTSLTSLSDCFLGSSDVGSLQARVGNPIDRLYSMQSSYFAS
Take B1: the binding result with GFP-GABARAP (human) [5], in the test with GFP-LC3C (human) [6] and with GFP-LC3A (human) [7] was “binds” each time.
